Data taken from PubChem BioAssay AID1259415 (National Center for Advancing Translational Sciences (NCATS), 2018).
Values joined by “and” are separate entries in the source; they are usually repeats but may differ in a detail not shown here. Equal values may be shown once. The whole screen tested about 410,000 compounds, of which about 18,000 (4.4%) were called active. Inconclusive results, whose numbers are uncertain, are shown with a selection of clear calls. No stated cut-off is given here; in the data, active means activity change below about -60%; inconclusive means no clear call, values can overlap the other calls; inactive means above about -39%. Some structures have more than one record in an assay (separate samples or runs), and their calls can disagree.

Assay: qHTS Assay for inhibitors of the human cytomegalovirus (HCMV)
Settings: HFF cells, HCMV-luciferase reporter, 72 h; at 57.5 µM; hits give low values
Method in brief: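 Compounds were evaluated in HFFs infected with an HCMV luciferase reporter virus (MOI 1 PFU/cell). Luciferase in lysates collected 72 h post infection served as the replication measure.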
On the % scale 0 is the no-effect control and ±100 the full control effect.

Compound | activity change, negative = inhibition
CCCCC1(C)OC(=O)C(=Cc2ccc(-c3ccc(Cl)c(C(=O)O)c3)o2)C(=O)O1 (configuration not stated) | inconclusive: -41.8%
Cc1ccc(CC2S/C(=N/N=C/c3ccco3)NC2=O)cc1 (configuration not stated) | inconclusive: -44.4%
COc1ccc(N2CCN(c3oc(COc4ccc(Cl)cc4Cl)nc3C#N)CC2)cc1 | inconclusive: -54.2%
CN(Cc1ccccc1)C(=O)c1ccc(NC(=O)Cc2cccc(NC(=O)C3CCCN(C(=O)CCc4ccccc4)C3)c2)cc1 (configuration not stated) | active: -68.4%
COc1ccc(NC(=O)CSc2nc3ccccc3nc2N2CCC(C)CC2)cc1 | inconclusive: -47.3%
O=C(c1ccccc1)N1CCN2C(=O)c3ccccc3C12c1ccc(Cl)cc1 (configuration not stated) | inconclusive: -51.4%
CCN(CC)S(=O)(=O)c1ccc(C(=O)Nc2ccc(Cc3ccncc3)cc2)cc1 | active: -86.8%
O=C1NCCCc2c1oc1ccc(O)cc21 | active: -62.6%
COc1ccc2nc(SCC(=O)Nc3ccc4c(c3)OCCO4)[nH]c2c1 | inconclusive: -44.7%
CC(C)c1nc2sc3c(=S)nc[nH]c3c2c2c1CCC2 | inconclusive: -41.8%
CCN=C1NN=C(c2cc(C)n(Cc3ccco3)c2C)CS1 | active: -84.4%
COC(=O)C1=C(C)NC(=S)NC1c1ccc(N(CCCl)CCCl)cc1Cl (configuration not stated) | inconclusive: -57.7%
O=CNc1ccc(OC(=O)c2cncc(Br)c2)cc1 | inactive: -5.84%
COc1cc(/C=C/c2ccc3c(Br)cc(Br)c(O)c3n2)ccc1O | active: -99.7%
Cc1ccc(NC(=S)Nc2cc(-c3ccccc3)[nH]n2)cc1Cl | active: -71.9%
CCOC(=O)c1ccc(NC(=S)N2CCCC(C)C2)cc1 (configuration not stated) | inconclusive: -40.6%
CCC(C(=O)OCc1cc(=O)n2nc(C)sc2n1)c1ccccc1 (configuration not stated) | inactive: -2.89%
Cc1ccc(/C=C2\SC(=S)N(CCCC(=O)NC3CCCC3)C2=O)cc1 | active: -60.8%
Cc1cccc(-c2noc(CN(C3CCCCC3)S(=O)(=O)c3ccc(F)cc3)n2)c1 | inactive: -38.9%
Cn1c(N2CCN(c3ccccn3)CC2)nc2c1c(=O)n(Cc1ccc(Cl)cc1)c(=O)n2C | active: -84.1%
CSc1nnc2c(n1)OC=Nc1ccc(Br)cc1-2 | inactive: 5.02%
Cc1ccc(S(=O)(=O)N2CCOCC2)cc1NC(=O)CSc1nnc2cc(C)c3ccccc3n12 | active: -63.3%

Compound | activity change, negative = inhibition
CCOC(=O)c1ccc(N2C(=O)c3n[nH]c(-c4ccco4)c3C2c2ccc(OCC)cc2)cc1 (configuration not stated) | active: -87.6%
CN(Cc1ccccc1)C(c1cc2ccccc2o1)c1nnnn1C(C)(C)C (configuration not stated) | inconclusive: -42.3%
CCOc1ccc(CN(C)C(=O)CN2C(=O)NC(c3ccccc3)(c3ccccc3)C2=O)cc1 | inconclusive: -55.7%
O=S(=O)(NCc1ccc(F)cc1)c1ccc(Br)cc1Br | inconclusive: -46.7%
Cc1nnsc1Sc1ccccc1C(=O)O | inactive: -19.3%
COc1ccccc1C(=O)COC(=O)c1cccs1 | inconclusive: -50.2%
Cc1ccccc1CN1[C@@H](C)[C@H](c2ccccc2)Oc2cccc(N3CCCC3)c2S1(=O)=O | inconclusive: -53%
S=C(NCCN1CCOCC1)Nc1ccc(-c2nc3ccccc3[nH]2)cc1 | inconclusive: -43.5%
O=C(COc1ccc2c3c(c(=O)oc2c1)CCC3)NCc1cccnc1 | inconclusive: -47.9%
CC(C)Cc1nnc(NC(=O)CCC(=O)NC2CCCC2)s1 | inactive: 4.33%
COc1ccc(OC)c(Nc2cc(-c3ccccc3)nc(N)n2)c1 | active: -89.6%
O=C1Cc2ccccc2N1c1c(Cl)cccc1Cl | inactive: -28.8%
Cc1ccc(S(=O)(=O)N2CCN3CCCC3C2)cc1 (configuration not stated) | inconclusive: -41.9%
COC(=O)c1ccc(S(=O)(=O)N2CCCN(Cc3ccc(F)cc3)CC2)n1C | active: -64.2%
CCC(C(=O)Nc1cccc(C(=O)O)c1C)c1ccccc1 (configuration not stated) | inconclusive: -59%
CCNc1ncnc2c1nnn2C | inactive: 42.8%
CCOC(=O)N1CCc2c(sc(NCc3cccc(F)c3)c2C(=O)Nc2ccc(OC)cc2OC)C1 | active: -87.5%
Cc1ccccc1CC1(CO)CCCN(C(=O)c2cccc(Cl)c2)C1 (configuration not stated) | inconclusive: -41.1%
CCCCNc1nc(-c2ccccc2)c(C(=O)OCC)cc1C#N | inactive: -3.22%
CCc1ccc(OCc2cc(=O)n3c4c(sc3n2)CCCC4)cc1 | inactive: -1.4%
CCCN(CCC)CCCNC(=O)c1cn(CC)c2ccc(S(=O)(=O)N(C)C3CCCCC3)cc2c1=O | active: -81.5%
Cc1ccc(OCCN2CCN(c3ncnc4sc(C)c(C)c34)CC2)cc1 | active: -98.8%

Arranged by count of non-hydrogen atoms (low to high): four of the compounds above.
Compound | activity change, negative = inhibition
O=C1Cc2ccccc2N1c1c(Cl)cccc1Cl | inactive: -28.8%
CCC(C(=O)Nc1cccc(C(=O)O)c1C)c1ccccc1 (configuration not stated) | inconclusive: -59%
CCOC(=O)c1ccc(N2C(=O)c3n[nH]c(-c4ccco4)c3C2c2ccc(OCC)cc2)cc1 (configuration not stated) | active: -87.6%
CCOC(=O)N1CCc2c(sc(NCc3cccc(F)c3)c2C(=O)Nc2ccc(OC)cc2OC)C1 | active: -87.5%

Next part:

Compound | activity change, negative = inhibition
O=C1c2cc([N+](=O)[O-])ccc2-c2cc(Br)c(N=C(NO)C(F)(F)F)cc21 | inconclusive: -44.4%
Cc1cccc(C)c1Nc1nnc(SCC(=O)c2ccc(Br)s2)s1 | inconclusive: -55%
CN(CC(=O)O)c1ccc(C(F)(F)F)cc1[N+](=O)[O-] | inconclusive: -45.6%
C/C=C(\C)C(=O)N[C@@H](c1ccccc1)[C@@H](O)C(=O)O[C@H]1C[C@@]2(O)[C@@H](OC(=O)c3ccccc3)C3[C@](C)(C(=O)[C@H](OC(C)=O)C(=C1C)C2(C)C)[C@@H](O)C[C@H]1OC[C@@]31OC(C)=O (some centres not stated) | inconclusive: -50.5%
COc1cc2c(cc1OC)C(C(=O)NC(C)c1ccccc1)CC(=O)N2 (configuration not stated) | inconclusive: -45.4%
COC(=O)c1ccccc1NC(=O)c1ccc(COc2cc(C)cc(C)c2)o1 | inactive: -20.9% and inactive: 5.8%
CCOc1c(Cl)cc(CNc2ccc(S(N)(=O)=O)cc2)cc1OC | inconclusive: -53.5%
O=C(CCN1C(=O)/C(=C/c2ccccc2Cl)SC1=S)NC1CCCC1 | inactive: -5.53%
CN(C)CCCOC(=O)C1c2ccccc2Oc2ccccc21 | inconclusive: -44.3%
CC(=O)Nc1ccc(-n2c(CCC(=O)O)ccc2-c2ccc(Br)cc2)cc1 | inconclusive: -45.2%
CC1CCN(C(=O)c2ccc(S(=O)(=O)NCc3ccco3)cc2)CC1 | inconclusive: -41.6%
Cc1ccc(O)c(N=Nc2ccc(S(=O)(=O)N3CCOCC3)cc2)c1 | inconclusive: -42%
C=C(C)CN(CC)C(=O)CCc1nnc(CCc2c[nH]c3ccccc23)o1 | inconclusive: -45.2%
COc1ccc(Nc2ccccc2NC(=O)c2ccccc2Br)cc1 | inconclusive: -55.7%
O=C(Nc1ccc(CN2CCCCC2)cc1)c1cc(Br)ccc1Cl | inconclusive: -47.6%
CC(=O)N1CCC2(CC1)OC(=O)C(C)=C2C(=O)Nc1cc(C)ccc1C | inconclusive: 0%
Cc1nc(SCC(=O)Nc2nccs2)c(C#N)c(C)c1C | active: -68.6%
CCN(CC)C(=O)N1c2ccccc2C=Cc2ccccc21 | active: -81.1%
O=C(CNc1cccc2ccccc12)N/N=C/c1ccc[nH]1 | active: -68%
Cc1nn(C(C)C(=O)NCCCc2ccccc2)c(=O)c2nn(-c3ccccc3)c(C)c12 (configuration not stated) | inconclusive: -44.1%
O=[N+]([O-])c1ccc(N2CCCC2)c(F)c1Br | inconclusive: -45.1%

Compound | activity change, negative = inhibition
COc1ccc(NC(=O)CCNC(=O)N2CC(=O)Nc3ccccc32)cc1OC | inconclusive: -46.9%
Cc1cccc(Oc2cc(NC(=O)c3ccccc3)cc([N+](=O)[O-])c2)c1 | active: -64.5%
CC(C)(C)OC(=O)N1CCC(c2c(C(=O)N3CCN(c4ccccc4)CC3)cnn2-c2ccccc2)CC1 | inconclusive: 0%
CC(C)n1cc(/C=N\NC(=O)c2cc3c(ccc4ccccc43)o2)c2ccccc21 | inactive: 4.88%
COC(=O)c1ccc(CNC(=O)COC(=O)C2CCC(C(C)(C)C)CC2)cc1 (configuration not stated) | inconclusive: -40.8%
Cc1ccc(-c2csc(NC(=O)c3cccc(C)c3)c2C(=O)O)cc1 | inactive: -21.3%
CC(=O)Nc1ccc(S(=O)(=O)NCCC(=O)N2CCN(C(c3ccccc3)c3ccccc3)CC2)cc1 | inconclusive: -41.8%
O=C(CN1C(=O)S/C(=C\c2ccc(O)cc2)C1=O)c1ccccc1 | inconclusive: -54.1%
CCCCc1ccc(S(=O)(=O)N2CCC3(CC2)OCCO3)cc1 | inactive: 41.7%
Cc1ccc2c3c(cccc13)-c1ccccc1C2=O | inactive: 16.1%
O=C(O)c1ccc(-n2nnnc2SCc2ccccc2Br)cc1 | inactive: 19.5%
COc1ccc(Br)cc1/C=N/NC(=O)C[n+]1ccccc1 | inactive: 3.11%
COc1cc(C(=O)Nc2ccc3c(c2)nc(C)n3C)cc(OC)c1OC | inactive: 63.6%
CCC(C(=O)N1CCN(c2ccccc2OC)CC1)c1ccccc1 (configuration not stated) | inconclusive: -47%
CN(CC(=O)Nc1ccc(F)cc1)C(=O)CN1C(=O)NC2(CCCC2)C1=O | inactive: -12.4%
COc1ccc(NC(=O)CN2CCC(C(N)=O)(N3CCCCC3)CC2)c(OC)c1 | inactive: 14.8%
COc1ccc2[nH]c3c(N4CCc5ccccc5C4)ncnc3c2c1 | active: -87.6%
CCOc1ccc(-c2nonc2NC(=O)c2ccco2)cc1 | inconclusive: -44.1%
CCCCOC(=O)/C(C#N)=C/c1ccc(-c2cccc(C(F)(F)F)c2)o1 | inactive: -3.64%
COC(=O)[C@@H]1[C@@H](C)N(Cc2ccccc2)C(=O)N[C@H]1c1ccccc1 | inconclusive: -44.7%
O=C(Nc1cccc(S(=O)(=O)Nc2ccc(Cl)cc2)c1)c1cc2c(s1)CCCC2 | active: -74.8%
